The values below are quoted from earlier work in USRE37355E, “6-dimethylaminomethyl-1-phenyl-cyclohexane compounds as pharmaceutical active ingredients” (priority 1995, dated 2001).

SMILES strings stand for the structures.

For this series the following is noted: J. Pharmacol. Exp. Ther. 267, 331 (1993); cited from earlier work.

As for `COc1cccc([C@@]2(O)CCCC[C@@H]2CN(C)C)c1.Cl` (racemic) [Tramadol, (1RS,2RS)-2[(dimethylamino)methyl]-1-(3-methoxyphenyl)cyclohexanol hydrochloride, reference compound], the inhibition of pain entry was “strong inhibitor of pain”.
